# Results of single-concentration screens

Data taken from ChEMBL document CHEMBL3988442, “University of Dundee, Small-Polar-MMV Screening Library” (2021).

T. brucei: 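Whole-parasite assay of Trypanosoma brucei over 72 hours; the read-out is not stated. Tested at 30 µM. The record gives no direction; compounds that gave an IC50 in retests scored well above the rest, so higher reads as stronger inhibition. Values scatter widely below zero; nearly all retest evidence comes from the higher of the two concentrations used. Size under these conditions: about 64,000 compounds, about 940 of them at 50% or above in at least one test.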
Toxoplasma: 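Assay of Toxoplasma gondii numbers, read through their beta-galactosidase reporter with a colour substrate. Concentration: 10 µM. Higher reads as fewer parasites (inferred from which compounds were picked for retests). Of about 67,000 compounds tested this way, about 260 (0.38%) reached 50% or more in at least one test.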

Results are given as percent effect. The record does not define 0% and 100%; most values in the screen are far below 50% and negative numbers occur (in some assays of this library far below -100). This is an unselected part of the compounds tested.

For OC1(CN2CCc3nnc(Cc4cccnc4)n3CC2)CCCNC1 (stereo not given) the result was T. brucei: -17.49%; Toxoplasma: 21.06%.
For CCc1nsc(N2CCCN(C(=O)COc3ccccc3)CC2)n1 the result was T. brucei: -14.58%; Toxoplasma: 11.97%.
For Cn1ccc(C(=O)Nc2nc(-c3ccc(Cl)cc3)n[nH]2)cc1=O the result was T. brucei: -38.97%; Toxoplasma: -4.099%.
For CN(Cc1nc2ccsc2c(=O)[nH]1)CC1CCCCC1 the result was T. brucei: -62.19%; Toxoplasma: -47.94%.
For O=C(Cc1ccc2c(c1)CCO2)N1CCN(c2nccs2)CC1 the result was T. brucei: -17%; Toxoplasma: -16.75%.
For CN1CCN(Cc2cn3c(n2)CN(Cc2cccnc2)CC3)CC1 the result was Toxoplasma: -2.636%.
For [H][C@]12CC[C@]([H])(CN(Cc3ccc(F)cc3)C1)N(Cc1cccc(O)c1)C2 the result was T. brucei: 102.6%; Toxoplasma: 18.49%.
For CC(C)C(C)NC(=O)Nc1ccc(CS(C)(=O)=O)cc1 (stereo not given) the result was T. brucei: 20.21%; Toxoplasma: 2.765%.
For OCC1CCCN(c2ncnc3c2Cc2ccccc2OC3)C1 (stereo not given) the result was Toxoplasma: 1.604%.
For Cc1cccc(C(=O)N2CCCCC2c2nc3cc(F)ccc3[nH]2)n1 (stereo not given) the result was T. brucei: -6.337%; Toxoplasma: 19.59%.
For CC(C)c1nc(CNc2nccc(CCC(F)(F)F)n2)cs1 the result was T. brucei: -28.63%; Toxoplasma: 3.558%.
For Cc1cc(C)n(CC2CCCCN2CCc2ccncc2)n1 (stereo not given) the result was Toxoplasma: 12%.
For O=C(NC1CCN(C2CC2)CC1)c1cn(-c2ccc(Cl)cc2)nn1 the result was T. brucei: -43.57%; Toxoplasma: 8.147%.
For Cc1nc(CSCCC(=O)NCc2cccnc2N(C)C)cs1 the result was T. brucei: -22.31%.
For Cc1nc(CNC(=O)NCC(O)c2ccc(F)cc2)cs1 (stereo not given) the result was T. brucei: -9.157%; Toxoplasma: -0.03191%.
For CCn1ccnc1SCCn1cnc2ccsc2c1=O the result was T. brucei: -1.314%; Toxoplasma: 0.1604%.
For Cc1c[nH]c(C2CCCN(Cc3ccccc3C(=O)O)C2)n1.O=CO (stereo not given) the result was T. brucei: -5.827%; Toxoplasma: 15.9%.
For Cc1ncnc2c1CCN(Cc1nccs1)CC2.O=C(O)C(F)(F)F the result was T. brucei: -12.53%; Toxoplasma: 4.899%.
For Nc1nc(CCCNC(=O)C2CCCN(Cc3ccco3)C2)cs1 (stereo not given) the result was T. brucei: -4.596%; Toxoplasma: -0.3861%.
For Cc1ccc(C(=O)NS(=O)(=O)Cc2ccccc2)cc1S(C)(=O)=O the result was T. brucei: -21.69%; Toxoplasma: 1.206%.
For CC(C)(C)CC(=O)N1CCC(n2cc(C3(O)CCCC3)nn2)CC1 the result was T. brucei: -22.22%; Toxoplasma: -2.204%.
For CCc1cnc(C)nc1NCCN1CCCC(C(N)=O)C1 (stereo not given) the result was T. brucei: -57.64%; Toxoplasma: 3.677%.
For CSCCC(NC(N)=O)C(=O)Nc1ccc(-n2cccn2)nc1 (stereo not given) the result was T. brucei: -27.39%; Toxoplasma: 2.744%.
For Cc1oncc1C(=O)N1CCCc2c(C#N)nn(C)c2C1 the result was T. brucei: -137.3%; Toxoplasma: -11.83%.
For Cn1cc(C(=O)N2CCN(c3ccc(F)cc3)CC2)ccc1=O the result was T. brucei: -138.2%; Toxoplasma: 1.908%.
For COc1cccc(OC)c1CN1CC(=O)N(c2ccc(C)cc2)CC1C (stereo not given) the result was T. brucei: 102.6%; Toxoplasma: 5.347%.
For COc1ccc2c(c1)OCC(Cc1ccc(N)nc1C)C2 (stereo not given) the result was T. brucei: 9.166%; Toxoplasma: 13.3%.

The first 2 entries again:

structure	T. brucei	Toxoplasma
OC1(CN2CCc3nnc(Cc4cccnc4)n3CC2)CCCNC1 (stereo not given)	-17.49	21.06
CCc1nsc(N2CCCN(C(=O)COc3ccccc3)CC2)n1	-14.58	11.97